Results reported in article PMC12216916.
No constants are given. Whether binding was seen depends on the method and setting. Binding seen in cells or lysates may run through a third protein. Some results given as binding are weak or reduced against the parent protein; the word gives no strength.

Sequences of proteins named here, by UniProt entry; tags and fusion partners are left off.
UniProt P38936: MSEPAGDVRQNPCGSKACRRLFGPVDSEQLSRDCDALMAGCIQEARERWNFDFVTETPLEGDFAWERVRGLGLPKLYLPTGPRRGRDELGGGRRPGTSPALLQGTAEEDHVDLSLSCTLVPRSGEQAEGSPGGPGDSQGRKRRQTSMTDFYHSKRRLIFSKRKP
UniProt Q8IYM9: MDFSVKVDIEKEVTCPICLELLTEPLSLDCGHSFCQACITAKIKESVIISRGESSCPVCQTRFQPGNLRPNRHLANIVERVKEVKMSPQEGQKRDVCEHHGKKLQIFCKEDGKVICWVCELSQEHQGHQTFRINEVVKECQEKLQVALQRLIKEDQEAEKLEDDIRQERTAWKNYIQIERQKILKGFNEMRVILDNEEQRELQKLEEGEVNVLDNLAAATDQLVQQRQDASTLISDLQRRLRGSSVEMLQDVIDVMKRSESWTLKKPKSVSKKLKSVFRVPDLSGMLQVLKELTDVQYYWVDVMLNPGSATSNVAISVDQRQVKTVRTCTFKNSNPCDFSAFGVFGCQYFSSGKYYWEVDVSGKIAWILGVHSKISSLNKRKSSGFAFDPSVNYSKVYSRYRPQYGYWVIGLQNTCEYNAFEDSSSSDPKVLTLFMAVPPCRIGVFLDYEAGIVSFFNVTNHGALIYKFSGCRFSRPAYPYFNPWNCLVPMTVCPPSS

What was measured:
[1] = biological target: SF-tagged (S-protein tag and Flag tag) p21 (UniProt P38936); assay: pull-down; S-protein pull-down from lysate of 293T cells co-transfected with p21-SF and Myc-TRIM22; NETN buffer (20 mM Tris-Cl pH 7.4, 100 mM NaCl, 1 mM EDTA, 0.5% NP-40), S-protein agarose, 4 °C, 4 h; Western blot (the legend speaks of immunoprecipitation with anti-Myc and anti-Flag antibodies)
[2] = biological target: SF-tagged full-length TRIM22 (UniProt Q8IYM9); assay: pull-down; S-protein pull-down from lysate of 293T cells transiently expressing SF-tagged TRIM22; endogenous p21 detected by Western blot; NETN buffer, S-protein agarose, 4 °C, 4 h (the legend speaks of immunoprecipitation with anti-p21 and anti-Flag antibodies)

| Substance | binding [1] | binding [2] |
| --- | --- | --- |
| Myc-tagged TRIM22 (tripartite motif-containing 22) (from UniProt Q8IYM9 1-498) | binds |  |
| endogenous p21 (from UniProt P38936 1-164) |  | binds |
